{
  "sequences": {"note": "Chains of the proteins cited; added tags and fusions are not shown. Residues count along the entry.", "UniProt P09958, 108-794": "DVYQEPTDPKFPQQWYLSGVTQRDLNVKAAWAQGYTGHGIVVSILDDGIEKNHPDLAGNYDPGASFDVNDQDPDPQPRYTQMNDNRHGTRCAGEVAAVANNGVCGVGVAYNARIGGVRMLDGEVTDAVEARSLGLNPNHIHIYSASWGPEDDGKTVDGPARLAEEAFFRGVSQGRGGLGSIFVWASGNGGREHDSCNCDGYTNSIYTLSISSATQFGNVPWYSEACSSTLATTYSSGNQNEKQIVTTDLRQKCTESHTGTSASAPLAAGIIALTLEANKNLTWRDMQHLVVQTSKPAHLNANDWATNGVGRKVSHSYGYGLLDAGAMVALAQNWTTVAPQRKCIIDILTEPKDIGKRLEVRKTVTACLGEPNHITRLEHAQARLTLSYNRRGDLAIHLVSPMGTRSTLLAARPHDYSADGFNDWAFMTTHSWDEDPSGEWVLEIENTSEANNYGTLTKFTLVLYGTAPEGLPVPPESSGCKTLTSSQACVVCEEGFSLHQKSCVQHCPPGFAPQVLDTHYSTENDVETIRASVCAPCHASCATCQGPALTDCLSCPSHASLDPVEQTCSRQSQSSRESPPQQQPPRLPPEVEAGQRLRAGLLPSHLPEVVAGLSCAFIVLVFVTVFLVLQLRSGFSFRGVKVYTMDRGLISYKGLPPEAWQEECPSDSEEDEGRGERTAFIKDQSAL", "UniProt P15917, 34-809 limits assumed": "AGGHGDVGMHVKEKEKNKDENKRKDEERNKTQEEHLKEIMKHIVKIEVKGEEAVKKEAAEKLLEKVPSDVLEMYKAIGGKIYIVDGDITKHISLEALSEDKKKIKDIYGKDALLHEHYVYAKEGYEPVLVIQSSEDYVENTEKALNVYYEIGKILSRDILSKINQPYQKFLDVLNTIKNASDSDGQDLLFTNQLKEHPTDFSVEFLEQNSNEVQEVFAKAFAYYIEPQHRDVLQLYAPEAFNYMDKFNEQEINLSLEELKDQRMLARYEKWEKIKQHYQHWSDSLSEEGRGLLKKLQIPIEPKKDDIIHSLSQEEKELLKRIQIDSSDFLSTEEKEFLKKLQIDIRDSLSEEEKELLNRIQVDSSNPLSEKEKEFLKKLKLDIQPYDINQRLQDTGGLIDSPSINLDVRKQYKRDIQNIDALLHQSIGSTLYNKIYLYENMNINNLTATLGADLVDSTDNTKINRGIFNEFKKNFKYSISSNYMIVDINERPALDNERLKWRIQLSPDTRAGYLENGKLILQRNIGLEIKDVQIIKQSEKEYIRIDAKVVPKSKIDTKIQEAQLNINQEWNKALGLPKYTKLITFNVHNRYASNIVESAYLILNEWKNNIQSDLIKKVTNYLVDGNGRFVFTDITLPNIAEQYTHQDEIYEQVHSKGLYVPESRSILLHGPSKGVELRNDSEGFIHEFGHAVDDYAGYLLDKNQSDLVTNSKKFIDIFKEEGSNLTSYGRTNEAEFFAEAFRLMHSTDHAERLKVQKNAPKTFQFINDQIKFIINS"},
  "source": "paper PMC5050486",
  "about": "(Scientific Reports, 2016)",
  "key": {"human furin": {"target": "T1, human furin (Homo sapiens, UniProt P09958)", "T1 construct": "purchased New England Biolabs", "experiment": "Host protease FRET test, furin", "type": "biochemical", "conditions": "33 μM drug, N/I = no FRET inhibition"}, "cathepsin B": {"target": "cathepsin B (Homo sapiens, UniProt P07858)", "experiment": "Host protease FRET test, cathepsin B", "type": "biochemical", "conditions": "33 μM drug, N/I = no FRET inhibition"}, "caspase-1": {"target": "T2, caspase-1 (Homo sapiens, UniProt P29466)", "T2 construct": "purchased BioVision", "T2 sequence (P29466 120-404)": "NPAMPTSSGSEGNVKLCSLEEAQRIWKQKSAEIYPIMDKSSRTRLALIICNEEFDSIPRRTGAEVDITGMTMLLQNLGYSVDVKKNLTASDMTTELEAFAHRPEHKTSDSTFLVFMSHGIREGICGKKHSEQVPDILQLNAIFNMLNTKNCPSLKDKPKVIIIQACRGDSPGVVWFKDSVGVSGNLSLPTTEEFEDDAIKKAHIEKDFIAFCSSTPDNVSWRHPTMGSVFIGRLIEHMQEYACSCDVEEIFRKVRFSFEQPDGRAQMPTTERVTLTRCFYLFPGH", "experiment": "Host protease FRET test, caspase-1", "type": "biochemical", "conditions": "33 μM drug, N/I = no FRET inhibition, read-out: Percent Inhibition with 33 μM of drug, Casp 1"}, "caspase-3": {"target": "T3, caspase-3 (Homo sapiens, UniProt P42574)", "T3 construct": "purchased BioVision", "T3 sequence (P42574 29-277)": "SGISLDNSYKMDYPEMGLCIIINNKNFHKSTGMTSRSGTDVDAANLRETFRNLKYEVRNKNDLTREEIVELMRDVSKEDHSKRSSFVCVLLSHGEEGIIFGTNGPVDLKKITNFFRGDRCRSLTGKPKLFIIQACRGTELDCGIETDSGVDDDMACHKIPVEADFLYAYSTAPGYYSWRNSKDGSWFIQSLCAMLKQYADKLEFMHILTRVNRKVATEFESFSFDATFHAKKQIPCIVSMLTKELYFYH", "experiment": "Host protease FRET test, caspase-3", "type": "biochemical", "conditions": "33 μM drug, N/I = no FRET inhibition, read-out: Percent Inhibition with 33 μM of drug, Casp 3"}, "anthrax LF": {"target": "anthrax LF (Bacillus anthracis, UniProt P15917)", "experiment": "biochemical"}, "calpain 1": {"target": "T4, calpain 1 (Homo sapiens, UniProt P07384)", "T4 construct": "purchased BioVision", "T4 sequence (P07384 1-714)": "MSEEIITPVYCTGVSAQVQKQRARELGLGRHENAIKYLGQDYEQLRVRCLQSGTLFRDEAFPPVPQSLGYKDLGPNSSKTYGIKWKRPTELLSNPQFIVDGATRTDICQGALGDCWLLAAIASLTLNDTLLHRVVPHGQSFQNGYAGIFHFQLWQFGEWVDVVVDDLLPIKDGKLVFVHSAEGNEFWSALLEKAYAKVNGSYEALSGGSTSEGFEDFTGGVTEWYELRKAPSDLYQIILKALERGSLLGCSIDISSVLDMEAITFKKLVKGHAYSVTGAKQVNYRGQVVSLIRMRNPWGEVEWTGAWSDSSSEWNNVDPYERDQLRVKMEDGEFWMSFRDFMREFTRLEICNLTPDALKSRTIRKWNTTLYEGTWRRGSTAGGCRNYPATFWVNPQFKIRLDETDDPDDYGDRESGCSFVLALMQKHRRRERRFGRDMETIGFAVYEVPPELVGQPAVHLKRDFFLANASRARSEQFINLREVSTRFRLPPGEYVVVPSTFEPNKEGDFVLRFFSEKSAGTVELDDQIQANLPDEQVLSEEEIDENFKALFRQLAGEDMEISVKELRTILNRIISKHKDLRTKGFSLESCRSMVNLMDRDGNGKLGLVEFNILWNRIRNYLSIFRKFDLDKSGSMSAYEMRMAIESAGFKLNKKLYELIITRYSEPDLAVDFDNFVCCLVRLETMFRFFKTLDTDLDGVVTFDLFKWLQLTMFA", "T4 sequence (P04632 1-268 partner)": "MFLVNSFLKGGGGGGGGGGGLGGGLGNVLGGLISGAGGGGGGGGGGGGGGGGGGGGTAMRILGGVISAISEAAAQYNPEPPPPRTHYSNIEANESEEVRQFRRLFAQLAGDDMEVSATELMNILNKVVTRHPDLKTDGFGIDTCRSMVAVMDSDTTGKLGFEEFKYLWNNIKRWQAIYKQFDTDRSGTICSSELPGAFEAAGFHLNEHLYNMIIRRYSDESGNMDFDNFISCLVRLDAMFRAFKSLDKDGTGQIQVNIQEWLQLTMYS", "experiment": "Host protease FRET test, calpain", "type": "biochemical", "conditions": "33 μM drug, N/I = no FRET inhibition"}},
  "data": [
    {"smiles": "CCCCCCCCCCCCCCCC[n+]1ccccc1", "note": "[Cetylpyridinium bromide]", "values": [
      {"measurement": "Percent Inhibition with 33 μM of drug, Furin", "setting": "human furin", "result": "N/I*"},
      {"measurement": "Percent Inhibition with 33 μM of drug, Cath B", "setting": "cathepsin B", "result": "N/I"},
      {"measurement": "inhibition at 33 µM", "setting": "caspase-1", "result": "14 ± 6.59", "unit": "%"},
      {"measurement": "inhibition at 33 µM", "setting": "caspase-3", "result": "84 ± 2.7", "unit": "%"},
      {"measurement": "IC50", "setting": "anthrax LF", "result": "360 ± 90", "unit": "nM"},
      {"measurement": "inhibition at 33 µM", "setting": "anthrax LF; read-out: Percent Inhibition with 33 μM of drug, LF", "result": "107 ± 1.07", "unit": "%"},
      {"measurement": "Percent Inhibition with 33 μM of drug, Calpain", "setting": "calpain 1", "result": "N/I"}
    ]}
  ]
}
